Laboratory results as given in publication PMC5458101.
Residue numbers refer to the chain shown, from its start. Results are given in words; binding and its absence hold for the method and conditions named. In cells and extracts the contact can be indirect. Some entries that bind do so weakly or less than the wild type. Tags and fused reporters may be left off the sequences shown.

Sequences of proteins named here, by UniProt entry; tags and fusion partners are left off.
UniProt P11142: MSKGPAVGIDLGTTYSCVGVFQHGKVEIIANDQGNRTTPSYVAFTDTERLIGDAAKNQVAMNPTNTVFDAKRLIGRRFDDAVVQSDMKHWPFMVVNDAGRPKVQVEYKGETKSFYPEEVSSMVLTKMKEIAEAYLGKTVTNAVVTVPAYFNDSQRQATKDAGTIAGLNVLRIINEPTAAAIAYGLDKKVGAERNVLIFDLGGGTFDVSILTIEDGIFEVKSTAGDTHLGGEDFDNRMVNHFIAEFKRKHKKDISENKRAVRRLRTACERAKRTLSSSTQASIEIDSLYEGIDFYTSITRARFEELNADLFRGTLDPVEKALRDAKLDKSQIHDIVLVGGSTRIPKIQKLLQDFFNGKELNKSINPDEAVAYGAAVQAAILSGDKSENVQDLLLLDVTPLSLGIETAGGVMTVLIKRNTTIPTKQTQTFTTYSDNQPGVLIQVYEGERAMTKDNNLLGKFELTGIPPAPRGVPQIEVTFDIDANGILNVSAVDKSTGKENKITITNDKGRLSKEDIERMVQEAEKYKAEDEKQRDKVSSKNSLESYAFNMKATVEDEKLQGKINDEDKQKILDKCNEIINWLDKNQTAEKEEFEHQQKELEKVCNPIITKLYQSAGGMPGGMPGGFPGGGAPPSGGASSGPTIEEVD
UniProt Q2PQA9: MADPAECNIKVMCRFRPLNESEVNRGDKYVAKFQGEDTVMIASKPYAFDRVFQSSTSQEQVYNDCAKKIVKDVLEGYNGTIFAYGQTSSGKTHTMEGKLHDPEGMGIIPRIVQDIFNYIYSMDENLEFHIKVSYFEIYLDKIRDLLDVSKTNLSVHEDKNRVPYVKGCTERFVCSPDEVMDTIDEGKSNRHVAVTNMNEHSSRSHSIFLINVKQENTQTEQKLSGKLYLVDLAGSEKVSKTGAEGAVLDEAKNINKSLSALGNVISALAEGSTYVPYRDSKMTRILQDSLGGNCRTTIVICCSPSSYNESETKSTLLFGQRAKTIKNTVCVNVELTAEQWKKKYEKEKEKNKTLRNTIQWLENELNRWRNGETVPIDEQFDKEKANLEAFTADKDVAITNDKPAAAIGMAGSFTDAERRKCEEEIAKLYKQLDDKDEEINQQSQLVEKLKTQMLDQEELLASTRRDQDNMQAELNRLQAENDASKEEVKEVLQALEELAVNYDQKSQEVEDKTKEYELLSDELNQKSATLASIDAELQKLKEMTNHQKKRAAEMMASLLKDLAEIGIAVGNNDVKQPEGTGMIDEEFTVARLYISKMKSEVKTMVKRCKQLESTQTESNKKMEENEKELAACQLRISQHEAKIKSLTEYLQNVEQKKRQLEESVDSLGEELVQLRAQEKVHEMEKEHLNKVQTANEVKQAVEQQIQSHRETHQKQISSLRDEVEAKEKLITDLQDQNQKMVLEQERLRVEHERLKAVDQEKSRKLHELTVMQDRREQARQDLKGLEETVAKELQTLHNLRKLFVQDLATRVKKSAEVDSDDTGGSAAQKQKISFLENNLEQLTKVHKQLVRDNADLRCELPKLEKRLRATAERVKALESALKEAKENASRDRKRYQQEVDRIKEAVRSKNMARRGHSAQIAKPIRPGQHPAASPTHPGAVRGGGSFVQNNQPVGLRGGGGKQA
UniProt Q92598: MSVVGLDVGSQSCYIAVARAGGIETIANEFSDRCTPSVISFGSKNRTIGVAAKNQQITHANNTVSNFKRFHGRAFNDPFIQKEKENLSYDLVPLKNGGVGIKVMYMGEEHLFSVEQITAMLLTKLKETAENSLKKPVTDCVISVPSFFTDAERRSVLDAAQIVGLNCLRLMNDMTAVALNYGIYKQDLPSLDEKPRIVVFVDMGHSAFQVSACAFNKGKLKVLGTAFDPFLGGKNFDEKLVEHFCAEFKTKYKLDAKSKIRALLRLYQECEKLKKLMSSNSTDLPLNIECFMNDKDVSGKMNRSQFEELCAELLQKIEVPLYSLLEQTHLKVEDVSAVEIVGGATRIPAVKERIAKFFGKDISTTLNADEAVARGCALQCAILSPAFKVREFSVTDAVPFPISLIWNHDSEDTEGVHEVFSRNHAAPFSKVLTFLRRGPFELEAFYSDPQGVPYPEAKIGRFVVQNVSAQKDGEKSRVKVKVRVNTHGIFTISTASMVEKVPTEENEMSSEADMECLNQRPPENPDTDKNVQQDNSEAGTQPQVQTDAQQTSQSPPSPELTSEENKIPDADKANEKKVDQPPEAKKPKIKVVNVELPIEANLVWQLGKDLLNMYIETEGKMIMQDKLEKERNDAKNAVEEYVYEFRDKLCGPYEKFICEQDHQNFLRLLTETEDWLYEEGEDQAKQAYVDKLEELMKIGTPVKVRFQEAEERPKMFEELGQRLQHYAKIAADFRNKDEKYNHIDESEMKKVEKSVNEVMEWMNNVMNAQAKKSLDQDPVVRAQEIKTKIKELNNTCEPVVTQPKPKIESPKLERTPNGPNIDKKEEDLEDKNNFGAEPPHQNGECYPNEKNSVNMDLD

Assays:
[1] = target: T1, FLAG-tagged B14 wild type (UniProt Q8TBM8); assay: co-IP; 293T cells expressing ^FLAGB14 WT or ^FLAGB14 H136Q, transiently transfected with ^mChKIF5 WT; DSP, lysis in 1% Triton X-100 TSEP buffer; anti-FLAG agarose beads; immunoblot
T1 sequence: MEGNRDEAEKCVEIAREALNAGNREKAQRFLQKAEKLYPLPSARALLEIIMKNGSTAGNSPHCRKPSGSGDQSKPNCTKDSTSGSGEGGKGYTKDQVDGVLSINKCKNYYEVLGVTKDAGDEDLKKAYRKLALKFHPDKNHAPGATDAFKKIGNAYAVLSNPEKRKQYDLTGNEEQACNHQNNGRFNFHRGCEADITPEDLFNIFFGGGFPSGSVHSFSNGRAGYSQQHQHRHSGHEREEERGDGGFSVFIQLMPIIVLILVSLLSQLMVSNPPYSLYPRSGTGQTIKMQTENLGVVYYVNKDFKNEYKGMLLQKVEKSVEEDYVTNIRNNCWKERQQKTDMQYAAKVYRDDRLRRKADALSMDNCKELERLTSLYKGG

[2] = target: T2, FLAG-tagged B14 H136Q (J-domain mutant) (UniProt Q8TBM8); assay: as above
T2 sequence: T1 sequence with H136Q

[3] = target: T1, FLAG-tagged B14 wild type; assay: co-IP
[4] = target: T3, 3x-FLAG tagged B14 (DNAJ homologue subfamily B member 14) (UniProt Q8TBM8); assay: co-IP; Flp-In 293T-REx cells stably expressing B14^3xFLAG, transiently transfected with ^mChKIF5 WT; cells treated with the cross-linker DSP (2 mM), lysed in 1% Triton X-100 TSEP buffer; anti-FLAG agarose beads, 2 h, 4 °C; immunoblot; HEK 293T cells without B14^3xFLAG as control
T3 sequence: T1 sequence

| binding [1] | binding [2] | binding [3] | binding [4] | Substance |
| --- | --- | --- | --- | --- |
| binds | binds weakly | – | – | heat shock cognate protein 70 (endogenous, 293T) (from UniProt P11142 1-646) |
| binds | binds | binds | binds | Full-length WT KIF5B tagged with mCherry at its N terminus (from UniProt Q2PQA9 1-963) |
| binds | binds weakly | – | – | heat shock protein 105 (endogenous, 293T) (from UniProt Q92598 1-858) |
